Assay results: patent publication US20110129481A1
Results are given in words; binding and its absence hold for the method and conditions named. Some binding calls cover weakened binding; strength is not graded here.

Chains of the proteins cited; added tags and fusions are not shown. Residues count along the entry.
UniProt P08581, residues 25-1390: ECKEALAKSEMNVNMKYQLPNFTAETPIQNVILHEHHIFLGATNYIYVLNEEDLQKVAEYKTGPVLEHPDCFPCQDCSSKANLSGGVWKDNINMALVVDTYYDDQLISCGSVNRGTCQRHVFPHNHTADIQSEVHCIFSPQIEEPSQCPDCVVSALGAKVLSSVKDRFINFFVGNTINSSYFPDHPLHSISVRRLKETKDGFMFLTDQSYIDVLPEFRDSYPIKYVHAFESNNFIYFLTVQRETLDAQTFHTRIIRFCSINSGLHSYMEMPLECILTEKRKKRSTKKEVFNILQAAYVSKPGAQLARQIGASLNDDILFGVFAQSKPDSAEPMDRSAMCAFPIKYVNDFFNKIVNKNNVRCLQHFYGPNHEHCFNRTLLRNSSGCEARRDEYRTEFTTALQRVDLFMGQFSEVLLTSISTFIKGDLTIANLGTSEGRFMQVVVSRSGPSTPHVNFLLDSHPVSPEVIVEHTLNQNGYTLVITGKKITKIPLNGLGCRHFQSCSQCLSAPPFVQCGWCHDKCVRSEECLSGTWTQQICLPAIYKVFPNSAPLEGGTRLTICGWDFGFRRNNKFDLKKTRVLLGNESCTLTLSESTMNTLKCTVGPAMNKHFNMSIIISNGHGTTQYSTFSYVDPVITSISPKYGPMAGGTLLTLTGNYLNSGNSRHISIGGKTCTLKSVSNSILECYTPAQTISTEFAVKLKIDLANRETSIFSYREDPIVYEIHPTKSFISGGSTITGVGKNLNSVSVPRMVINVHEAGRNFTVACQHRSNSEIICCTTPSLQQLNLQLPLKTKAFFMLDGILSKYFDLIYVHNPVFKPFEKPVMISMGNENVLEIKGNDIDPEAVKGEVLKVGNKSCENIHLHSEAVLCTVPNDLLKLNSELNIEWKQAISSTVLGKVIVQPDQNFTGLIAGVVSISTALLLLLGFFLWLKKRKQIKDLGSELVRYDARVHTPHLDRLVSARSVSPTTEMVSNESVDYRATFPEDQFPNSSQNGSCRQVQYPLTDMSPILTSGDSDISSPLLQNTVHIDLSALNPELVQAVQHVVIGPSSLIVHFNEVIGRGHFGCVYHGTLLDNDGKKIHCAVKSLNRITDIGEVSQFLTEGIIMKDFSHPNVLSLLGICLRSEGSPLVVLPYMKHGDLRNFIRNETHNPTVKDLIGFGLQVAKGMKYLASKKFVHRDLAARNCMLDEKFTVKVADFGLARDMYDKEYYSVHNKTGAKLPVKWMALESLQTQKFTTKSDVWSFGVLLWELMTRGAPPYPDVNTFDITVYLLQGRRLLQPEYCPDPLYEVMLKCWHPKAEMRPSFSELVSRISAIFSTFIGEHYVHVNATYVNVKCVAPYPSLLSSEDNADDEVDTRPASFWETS

Legend:
[1] = target: c-Met in HEK293 cells with tetracycline-regulated expression of c-Met (UniProt P08581); test: immunoprecipitation from HEK293 lysates, Western blot
[2] = target: c-Met in HEK293 cells with tetracycline-regulated expression of c-Met (UniProt P08581); test: immunohistochemistry on HEK293 cells with or without tetracycline
[3] = target: c-Met in HEK293 cells with tetracycline-regulated expression of c-Met (UniProt P08581); test: immunoprecipitation from HEK293 cells (legend of FIG. 2)

binding [1]: binds
binding [2]: binds
binding [3]: binds
B1: monoclonal antibody AbF24 (antibody, V domains shown)
VH: QIQLVQSGPELKKPGETVKISCKASGYTFTDYSMHWVKQAPGKGLKWMGWINTETGAPTYADDFKGRFAFSLETSASTAYLQINNLKDEDTATYFCARASMISFVYWGQGTLV
VL: DIVMSQSPSSLAVSVGEKITMSCKSSQSLLYSSNQKNYLAWYQQKPGQSPKLLIYWASTRKSGVPDRFTGSGSGTDFTLTISSVKAEDLAVYYCQQYYDYPFTFGSGTK
